# Source: PubChem BioAssay AID901 (National Center for Advancing Translational Sciences (NCATS), 2007)
# Some of the results follow. The main result of the screen is listed elsewhere. These columns were measured beside it and carry no call. Most of these compounds were active or inconclusive in the main read-out, so they are no random draw. Words in brackets tell the shape of the fitted curve; partial curves, single points and poor fits give uncertain potencies.
# Experiment: qHTS Assay for Identifying the Cell-Membrane Permeable IMPase Inhibitors
# Details: CHO-M1 cells, IP1 accumulation, HTRF TR-FRET ratio; measured here: donor channel 620 nm AC50
row,SMILES,AC50
1,COc1cccc(C2N(c3ccccn3)C(=O)C3CCCN32)c1OC (configuration not stated),"2000 nM [rising, full curve, poor fit]"
2,CCOC(=O)CC(=O)CSc1nc2c(sc(=S)n2-c2ccccc2)c(=O)[nH]1,"5010 nM [rising, single point]"
3,CCCC1c2ccc(C)n2CCN1C(=O)Nc1ccccc1Cl (configuration not stated),"1260 nM [falling, full curve]"
4,COCCn1nnnc1CN1CCN(c2cccc(C(F)(F)F)c2)CC1,"3980 nM [rising, full curve]"
5,CCOc1ccc(NCCC(=O)c2ccc3c(c2)OCO3)cc1,"2820 nM [falling, full curve, poor fit]"
6,C=CCN1C(=O)NC2(CCCCC2)C1=O,"5.01 nM [falling, full curve, poor fit]"
7,O=c1[nH]c(N2CCN(c3ccccc3)CC2)nc2c1CCC2,"35500 nM [falling, single point]"
8,O=C(C1=C(O)C(=O)N(CCc2ccccc2)C1c1cccnc1)c1ccco1 (configuration not stated),"6310 nM [rising, partial curve, poor fit]"
9,COC(=O)Nc1sc2c(c1C(=O)N1CCOCC1)CCC(C)C2 (configuration not stated),"141 nM [rising, full curve, poor fit]"
10,Cn1c(=O)c2c(nc(N3CCCCCC3)n2Cc2cccc3ccccc23)n(C)c1=O,"3160 nM [falling, partial curve]"
11,CCOc1cccc(C2C(C(=O)c3ccc(C)o3)=C(O)C(=O)N2c2nccs2)c1 (configuration not stated),"20000 nM [rising, partial curve, poor fit]"
12,CC1CCc2c(sc3ncnc(N4CCOCC4)c23)C1 (configuration not stated),"3160 nM [rising, single point]"
13,COc1ccc2c(Cl)c(C(N)=O)sc2c1,"12600 nM [rising, partial curve]"
14,Cc1nnc(SCC(=O)Nc2ccc3c(c2)OCCO3)n1N,"251 nM [falling, full curve, poor fit]"
15,Cn1c(NC(=O)c2ccc(Cl)cc2)c(-c2ccccn2)c(=O)c2ccccc21,"31600 nM [rising, single point]"
16,C=CCNC(=O)CSc1nnc(-c2cccs2)o1,"3.16 nM [falling, full curve]"
17,Cc1ccc(-c2nnc(Nc3ccc(S(N)(=O)=O)cc3)c3ccccc23)cc1S(=O)(=O)N1CCCCC1,"17800 nM [rising, single point]"
18,COc1cc(OC)cc(C(=O)Nc2ccc3oc(-c4cccc5c(Br)cccc45)nc3c2)c1,"794 nM [falling, single point]"
19,O=C(N/N=C/c1ccc(Cl)c([N+](=O)[O-])c1)c1ccc2nc[nH]c2c1,"794 nM [rising, full curve, poor fit]"
20,CN1/C(=N\O)c2cccc3cccc1c23,"31.6 nM [falling, full curve, poor fit]"
21,CCc1nc(N)nc2c1C(=O)CC(C)(C)C2,"63.1 nM [rising, partial curve, poor fit]"
22,CC(C)(Oc1ccc(Cl)cc1)C(=O)Nc1nc2ccc(S(C)(=O)=O)cc2s1,"355 nM [falling, partial curve, poor fit]"
23,O=C(c1ccc(F)cc1)n1nc(-c2ccccc2)nc1NCc1ccco1,"5.01 nM [falling, full curve, poor fit]"

row,SMILES,AC50
1,COc1ccc(Cn2nnnc2C(c2cccs2)N2CCCCCC2)cc1 (configuration not stated),"20000 nM [falling, single point]"
2,CC1=C(C(=O)Nc2ccccc2)C(c2ccc(C)o2)n2c(s/c(=C\c3ccco3)c2=O)=N1 (configuration not stated),"15.8 nM [falling, full curve, poor fit]"
3,FC(F)(F)c1cccc(Nc2ncnc3ccccc23)c1,"50.1 nM [falling, full curve]"
4,CC1(C)CC2CC(C)(CN2C(=O)c2cccs2)C1 (configuration not stated),"4.47 nM [falling, full curve, poor fit]"
5,N#CCCN1CCN(S(=O)(=O)c2ccc(S(=O)(=O)N3CCCC3)cc2)CC1,"14100 nM [falling, single point]"
6,C/C(CCc1oc2ccccc2c1-c1ccc(C)o1)=N/O,"501 nM [falling, single point]"
7,Cc1cc(-c2ccccc2)[nH]c(=O)c1S(=O)(=O)c1ccc(Cl)cc1,"794 nM [falling, full curve, poor fit]"
8,CC(C)(C)n1c(=O)[nH]c2c(c1=O)CCC2,"200 nM [rising, full curve, poor fit]"
9,COC(=O)CSc1nnc(-c2ccncc2)n1N,"3160 nM [rising, partial curve]"
10,O=C(CN1C(=O)c2ccccc2S1(=O)=O)NC1CCCCCC1,"35500 nM [falling, single point]"
11,O=C(NC1CCCCC1)C12CC3CC(C1)CC(n1cncn1)(C3)C2,"200 nM [rising, full curve, poor fit]"
12,CCCCOc1cccc(C2(C(=O)O)CCCC2)c1,"12.6 nM [falling, full curve]"
13,CC(C)(C)c1ccc(C(=O)CC(=O)c2cc(Cl)ccc2O)cc1,"5010 nM [falling, partial curve]"
14,Cc1nn(CC#N)c(=O)n1-c1ccc(F)cc1,"794 nM [falling, full curve, poor fit]"
15,CCOC(=O)c1[nH]c2ccc(OC)cc2c1NC(=O)C(C)N1CCC2(CC1)OCCO2 (configuration not stated),"31600 nM [falling, single point]"
16,Cc1ccc(S(=O)(=O)c2nc(-c3ccc(F)cc3)oc2SCC(N)=O)cc1,"31600 nM [falling, partial curve]"
17,CCOC(=O)C(=O)Nc1nnc(Cc2ccc(OC)c(OC)c2)s1,"126 nM [rising, partial curve]"
18,O=C(Nc1ccc(-c2nnc3n2CCCCC3)cc1)c1cnccn1,"4.47 nM [falling, full curve, poor fit]"
19,Nc1nc(CSc2nc3ccccc3s2)nc(Nc2ccccc2)n1,"6310 nM [falling, single point]"
20,Cc1c(NC(=O)CN2CCN(C(=O)c3ccco3)CC2)c(=O)n(-c2ccccc2)n1C,"50.1 nM [falling, full curve, poor fit]"
21,O=[N+]([O-])c1ccccc1/C=N/NC1=NCCCCC1,"3550 nM [falling, single point]"
22,CC1CCC2(CC1)SCC(=O)N2c1ccccc1 (configuration not stated),"794 nM [falling, full curve]"
23,COc1cc2oc(=O)c(Br)c(C)c2c(OC)c1OC,"12600 nM [rising, partial curve, poor fit]"

row,SMILES,AC50
1,Cc1noc(NS(=O)(=O)c2ccc(N/C=C/C(=O)c3ccncc3)cc2)c1C,"31600 nM [falling, single point]"
2,O=C(CN(Cc1cccs1)C(=O)c1csnn1)NC1CCCC1,"31600 nM [falling, single point]"
3,CC(OC(=O)c1ccncc1)C(=O)Nc1cccc(Cl)c1 (configuration not stated),"158 nM [falling, full curve, poor fit]"
4,O=C(OCn1ncc(Br)c(Br)c1=O)c1ccccc1Cl,"25100 nM [rising, partial curve]"
5,O=C(Nc1ccccc1C(=O)N1CCOCC1)c1ccco1,"501 nM [falling, full curve, poor fit]"
6,O=C(NCc1ccco1)C1CCC(N2C(=O)c3ccccc3C2=O)CC1 (configuration not stated),"12.6 nM [rising, full curve, poor fit]"
7,COc1ccccc1NC(=O)c1ccc(NC(=O)CSc2ncn[nH]2)cc1,"56.2 nM [rising, full curve, poor fit]"
8,CN(C)c1ncnc2c1NC1=C(S2)C(=NCCCC(=O)O)CC(C)(C)C1,"25100 nM [falling, single point]"
9,Cn1cccc1Cc1nnc(SCC(=O)N2CCCc3ccccc32)n1-c1ccc(F)cc1,"3550 nM [falling, single point]"
10,COc1ccc2oc(=O)c(C(=O)NCc3ccccn3)cc2c1,"5010 nM [rising, single point]"
11,Cc1cc(CN(C)C)c(O)c(C2(C)CCCCC2)c1,"708 nM [rising, single point]"
12,Cc1cc(NC(=O)CSc2nc(-c3ccccc3)c(C#N)c(=O)[nH]2)no1,"12600 nM [rising, partial curve]"
13,Cc1ccc2nc(-c3cccnc3)c(Nc3ccccc3C)n2c1,"178 nM [falling, full curve, poor fit]"
14,CCCCNC(=O)c1cc2nc3c(c(C(F)(F)F)n2n1)CCc1ccccc1-3,"12600 nM [falling, partial curve]"
15,CCOC(=O)C1=C(CSc2nc3ccccc3s2)NC(=O)NC1c1cccc([N+](=O)[O-])c1 (configuration not stated),"100 nM [falling, partial curve]"
16,CC(C)NC(=S)NC(=O)c1ccc(-c2ccccc2)cc1,"15800 nM [rising, partial curve]"
17,COC(=O)c1sc(NC(=O)C2CCCCC2C(=O)O)c(C(=O)OC)c1C (configuration not stated),"20000 nM [rising, single point]"
18,N#CC1=C(N)SC(C(=O)c2ccccc2)C1c1cccs1 (configuration not stated),"200 nM [rising, single point]"
19,O=C(COC(=O)CCc1c[nH]c2ccccc12)NC1CCS(=O)(=O)C1 (configuration not stated),"794 nM [falling, full curve]"
20,O=S1(=O)C=C(Sc2nnc(-c3ccccc3)o2)c2ccccc21,"12600 nM [rising, partial curve]"
21,Cc1ccc(C)c(N2CCN(C(=O)CN(C)S(=O)(=O)c3cnc[nH]3)CC2)c1,"31600 nM [falling, single point]"

# 3 compounds out of the list, ordered by formula weight, ascending:
row,SMILES,AC50
9,COC(=O)CSc1nnc(-c2ccncc2)n1N,"3160 nM [rising, partial curve]"
7,O=c1[nH]c(N2CCN(c3ccccc3)CC2)nc2c1CCC2,"35500 nM [falling, single point]"
10,O=C(CN1C(=O)c2ccccc2S1(=O)=O)NC1CCCCCC1,"35500 nM [falling, single point]"

# In the list so far, these contain a tert-butyl group.
row,SMILES,AC50
8,CC(C)(C)n1c(=O)[nH]c2c(c1=O)CCC2,"200 nM [rising, full curve, poor fit]"
13,CC(C)(C)c1ccc(C(=O)CC(=O)c2cc(Cl)ccc2O)cc1,"5010 nM [falling, partial curve]"
